Our source for the binding values is PMC12501092.

Chains of the proteins cited; added tags and fusions are not shown.
UniProt Q14258: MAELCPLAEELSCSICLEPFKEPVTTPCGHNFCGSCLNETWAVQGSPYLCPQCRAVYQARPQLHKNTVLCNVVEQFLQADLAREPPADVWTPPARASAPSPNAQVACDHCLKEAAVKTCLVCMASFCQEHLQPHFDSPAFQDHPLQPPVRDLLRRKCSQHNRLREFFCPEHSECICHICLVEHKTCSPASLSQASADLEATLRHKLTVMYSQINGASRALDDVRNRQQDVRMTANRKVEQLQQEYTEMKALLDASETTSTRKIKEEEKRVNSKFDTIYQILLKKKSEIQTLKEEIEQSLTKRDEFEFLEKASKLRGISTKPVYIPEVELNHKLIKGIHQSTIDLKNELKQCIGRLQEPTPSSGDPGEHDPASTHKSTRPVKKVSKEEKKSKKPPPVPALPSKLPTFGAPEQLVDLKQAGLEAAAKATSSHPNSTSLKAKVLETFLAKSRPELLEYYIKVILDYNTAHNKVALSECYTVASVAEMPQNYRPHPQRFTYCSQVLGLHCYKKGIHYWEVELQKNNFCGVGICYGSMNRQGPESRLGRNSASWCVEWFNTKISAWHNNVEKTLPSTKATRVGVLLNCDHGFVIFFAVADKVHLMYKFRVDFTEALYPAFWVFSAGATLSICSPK
UniProt Q93009: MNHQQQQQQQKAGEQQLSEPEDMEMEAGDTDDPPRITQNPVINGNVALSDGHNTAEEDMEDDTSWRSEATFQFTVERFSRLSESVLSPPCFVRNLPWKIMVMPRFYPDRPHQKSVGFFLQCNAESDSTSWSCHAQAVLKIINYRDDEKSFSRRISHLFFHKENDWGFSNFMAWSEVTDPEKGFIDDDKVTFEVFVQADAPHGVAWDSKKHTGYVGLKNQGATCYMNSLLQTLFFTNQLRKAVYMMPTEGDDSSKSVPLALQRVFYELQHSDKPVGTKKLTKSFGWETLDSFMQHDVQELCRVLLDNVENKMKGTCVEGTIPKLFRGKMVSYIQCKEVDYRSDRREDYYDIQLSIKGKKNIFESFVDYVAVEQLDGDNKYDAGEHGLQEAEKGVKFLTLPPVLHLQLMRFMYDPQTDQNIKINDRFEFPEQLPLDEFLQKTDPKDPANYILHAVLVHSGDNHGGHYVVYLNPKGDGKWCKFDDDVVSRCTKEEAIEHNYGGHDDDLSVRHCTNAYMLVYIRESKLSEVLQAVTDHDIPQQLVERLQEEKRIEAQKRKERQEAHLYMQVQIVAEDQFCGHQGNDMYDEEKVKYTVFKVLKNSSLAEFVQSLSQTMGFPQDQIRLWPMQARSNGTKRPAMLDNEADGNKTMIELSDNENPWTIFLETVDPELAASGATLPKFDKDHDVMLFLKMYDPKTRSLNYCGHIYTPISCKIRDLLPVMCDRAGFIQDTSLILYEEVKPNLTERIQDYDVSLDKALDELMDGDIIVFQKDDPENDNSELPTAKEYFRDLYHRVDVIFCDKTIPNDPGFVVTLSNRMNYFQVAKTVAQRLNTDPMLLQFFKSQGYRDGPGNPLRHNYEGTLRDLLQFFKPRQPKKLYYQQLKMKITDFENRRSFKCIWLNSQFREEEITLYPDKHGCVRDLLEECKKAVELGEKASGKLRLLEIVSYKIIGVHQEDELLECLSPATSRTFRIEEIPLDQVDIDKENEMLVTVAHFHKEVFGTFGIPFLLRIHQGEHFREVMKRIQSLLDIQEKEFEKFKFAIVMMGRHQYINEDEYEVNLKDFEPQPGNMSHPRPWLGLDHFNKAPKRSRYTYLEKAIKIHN

No constants are given. Whether binding was seen depends on the method and setting. Binding seen in cells or lysates may run through a third protein. A yes stands for co-enrichment or nearness to the bait. Other partners may have been found.

This test addresses TRIM25, bait of the mass spectrometry screen for deubiquitinases in A549 cells (UniProt Q14258). Nature of the test: affinity purification with mass spectrometry; A549 cells; product after IP analysed by mass spectrometry (PTM BIO); hits crossed with Ubibrowser 2.0 predictions.

With “USP7, endogenous (from UniProt Q93009 1-1102) (enzyme)”, the binding result is reported as “binds”.

B1: USP15, endogenous (enzyme, UniProt Q9Y4E8 1-981)
chain: MAEGGAADLDTQRSDIATLLKTSLRKGDTWYLVDSRWFKQWKKYVGFDSWDKYQMGDQNVYPGPIDNSGLLKDGDAQSLKEHLIDELDYILLPTEGWNKLVSWYTLMEGQEPIARKVVEQGMFVKHCKVEVYLTELKLCENGNMNNVVTRRFSKADTIDTIEKEIRKIFSIPDEKETRLWNKYMSNTFEPLNKPDSTIQDAGLYQGQVLVIEQKNEDGTWPRGPSTPKSPGASNFSTLPKISPSSLSNNYNNMNNRNVKNSNYCLPSYTAYKNYDYSEPGRNNEQPGLCGLSNLGNTCFMNSAIQCLSNTPPLTEYFLNDKYQEELNFDNPLGMRGEIAKSYAELIKQMWSGKFSYVTPRAFKTQVGRFAPQFSGYQQQDCQELLAFLLDGLHEDLNRIRKKPYIQLKDADGRPDKVVAEEAWENHLKRNDSIIVDIFHGLFKSTLVCPECAKISVTFDPFCYLTLPLPMKKERTLEVYLVRMDPLTKPMQYKVVVPKIGNILDLCTALSALSGIPADKMIVTDIYNHRFHRIFAMDENLSSIMERDDIYVFEININRTEDTEHVIIPVCLREKFRHSSYTHHTGSSLFGQPFLMAVPRNNTEDKLYNLLLLRMCRYVKISTETEETEGSLHCCKDQNINGNGPNGIHEEGSPSEMETDEPDDESSQDQELPSENENSQSEDSVGGDNDSENGLCTEDTCKGQLTGHKKRLFTFQFNNLGNTDINYIKDDTRHIRFDDRQLRLDERSFLALDWDPDLKKRYFDENAAEDFEKHESVEYKPPKKPFVKLKDCIELFTTKEKLGAEDPWYCPNCKEHQQATKKLDLWSLPPVLVVHLKRFSYSRYMRDKLDTLVDFPINDLDMSEFLINPNAGPCRYNLIAVSNHYGGMGGGHYTAFAKNKDDGKWYYFDDSSVSTASEDQIVSKAAYVLFYQRQDTFSGTGFFPLDRETKGASAATGIPLESDEDSNDNDNDIENENCMHTN
Regarding B1, the binding entry is “binds”.
